No constants are given. Whether binding was seen depends on the method and setting. Binding seen in cells or lysates may run through a third protein. Some binding calls cover weakened binding; strength is not graded here.
Columns and labels:
[1] = molecular target: Zipper-interacting protein kinase (in SH-SY5Y cells) (UniProt O43293); experiment: co-IP; SH-SY5Y cell lysate in NP-40 lysis buffer; primary antibody at 4 °C for 2 h, protein A/G plus-agarose at 4 °C for 1 h; immunoblotting
[2] = molecular target: T1, death effector domain-containing DNA binding protein (mouse (endogenous in mouse brain)) (UniProt Q9Z1L3); experiment: co-IP; mouse brain lysate in NP-40 lysis buffer; primary antibody (anti-ZIPK or anti-DEDD) at 4 °C for 2 h, protein A/G plus-agarose at 4 °C for 1 h; immunoblotting
T1 sequence: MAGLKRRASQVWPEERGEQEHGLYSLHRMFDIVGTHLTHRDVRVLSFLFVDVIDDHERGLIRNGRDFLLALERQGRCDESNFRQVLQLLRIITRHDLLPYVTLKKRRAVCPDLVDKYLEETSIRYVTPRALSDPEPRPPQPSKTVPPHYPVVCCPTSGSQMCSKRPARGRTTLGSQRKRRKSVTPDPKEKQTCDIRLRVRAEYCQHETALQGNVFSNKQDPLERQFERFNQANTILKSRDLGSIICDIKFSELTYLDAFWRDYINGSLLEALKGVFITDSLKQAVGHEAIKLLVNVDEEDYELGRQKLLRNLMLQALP

By UniProt entry, the sequences of proteins in these tests, tags left out.
UniProt O43293: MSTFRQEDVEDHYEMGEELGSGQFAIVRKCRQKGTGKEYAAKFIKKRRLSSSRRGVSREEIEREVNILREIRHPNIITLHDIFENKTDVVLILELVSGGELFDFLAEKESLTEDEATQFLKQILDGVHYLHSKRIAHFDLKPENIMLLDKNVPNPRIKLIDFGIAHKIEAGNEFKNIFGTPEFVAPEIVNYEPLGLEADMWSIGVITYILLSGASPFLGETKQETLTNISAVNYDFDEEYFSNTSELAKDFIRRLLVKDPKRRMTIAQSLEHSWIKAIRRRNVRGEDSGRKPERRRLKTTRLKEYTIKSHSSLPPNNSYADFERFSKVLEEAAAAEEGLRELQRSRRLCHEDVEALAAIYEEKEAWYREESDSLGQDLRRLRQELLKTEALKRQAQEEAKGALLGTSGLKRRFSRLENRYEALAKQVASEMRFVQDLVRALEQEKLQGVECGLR
UniProt O54784: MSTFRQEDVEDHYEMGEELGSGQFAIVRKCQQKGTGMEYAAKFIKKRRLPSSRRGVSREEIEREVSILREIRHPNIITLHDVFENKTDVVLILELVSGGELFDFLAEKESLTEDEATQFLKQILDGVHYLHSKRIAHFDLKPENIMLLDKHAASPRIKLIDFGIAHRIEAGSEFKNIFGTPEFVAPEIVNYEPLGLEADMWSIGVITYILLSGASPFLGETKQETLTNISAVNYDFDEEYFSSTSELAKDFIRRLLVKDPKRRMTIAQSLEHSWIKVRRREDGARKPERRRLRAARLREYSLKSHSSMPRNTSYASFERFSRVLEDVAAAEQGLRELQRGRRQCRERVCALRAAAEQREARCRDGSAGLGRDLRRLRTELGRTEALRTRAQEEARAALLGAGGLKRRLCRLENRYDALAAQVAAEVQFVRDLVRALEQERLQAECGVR
UniProt O75618: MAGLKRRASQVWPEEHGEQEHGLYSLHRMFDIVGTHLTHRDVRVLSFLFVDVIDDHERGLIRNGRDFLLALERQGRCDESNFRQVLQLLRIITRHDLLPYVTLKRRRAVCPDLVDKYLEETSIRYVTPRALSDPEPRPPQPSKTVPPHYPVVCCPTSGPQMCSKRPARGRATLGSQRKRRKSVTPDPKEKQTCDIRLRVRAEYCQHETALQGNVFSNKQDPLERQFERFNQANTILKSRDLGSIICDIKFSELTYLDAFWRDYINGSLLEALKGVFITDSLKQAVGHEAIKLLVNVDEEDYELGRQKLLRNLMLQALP

[3] = molecular target: Zipper-interacting protein kinase (in HEK293T cells) (UniProt O43293); experiment: co-IP; HEK293T cell lysate in NP-40 lysis buffer; primary antibody at 4 °C for 2 h, protein A/G plus-agarose at 4 °C for 1 h; immunoblotting
[4] = molecular target: Zipper-interacting protein kinase (mouse (endogenous in mouse brain)) (UniProt O54784); experiment: co-IP; mouse brain lysate in NP-40 lysis buffer; primary antibody (anti-ZIPK or anti-DEDD) at 4 °C for 2 h, protein A/G plus-agarose at 4 °C for 1 h; immunoblotting

“death effector domain-containing DNA binding protein (in SH-SY5Y cells) (from UniProt O75618 1-318)” was tested, and the binding [1] was “binds”.

With “Zipper-interacting protein kinase (from UniProt O54784 1-448) (enzyme)” the binding [2] was “binds”.

“death effector domain-containing DNA binding protein (in HEK293T cells) (from UniProt O75618 1-318)” was tested, and the binding [3] was “binds”.

B1: death effector domain-containing DNA binding protein (protein, UniProt Q9Z1L3 1-318)
chain: T1 sequence
For B1, the binding [4] was “binds”.

Source: PMC11876612
